Experimental data: US20230139826A1 (NONO INC., priority 2020, published 2023)
At least one peptide structure holds a part that was inferred or is arguable (an end, a ring closure or a residue). Non-standard residues stand in square brackets, D forms with d. Residues, ends and D or L forms follow the SMILES beside them.

| SMILES | AUC (0-Inf) (FIG. 7C) [µg·min/mL] | AUC (0-last) (FIG. 7C) [µg·min/mL] | Cl (FIG. 7C) [mL/h/kg] | Cmax (FIG. 7C) [ng/mL] | T1/2 (FIG. 7C) [min] | AUC (0-Inf) (FIG. 10C) [ng·min/mL] | AUC (0-last) (FIG. 10C) [ng·min/mL] | Cl (FIG. 10C) [mL/h/kg] | Cmax (FIG. 10C) [ng/mL] | t1/2 (FIG. 10C) [min] |
| --- | --- | --- | --- | --- | --- | --- | --- | --- | --- | --- |
| CC[C@H](C)[C@H](NC(=O)[C@H](CO)NC(=O)[C@H](CO)NC(=O)[C@H](CC(C)C)NC(=O)[C@H](CCCCN)NC(=O)[C@@H](CCCNC(=N)N)NC(=O)[C@@H](CCCNC(=N)N)NC(=O)[C@@H](CCCNC(=N)N)NC(=O)[C@@H](CCC(N)=O)NC(=O)[C@@H](CCCNC(=N)N)NC(=O)[C@@H](CCCNC(=N)N)NC(=O)[C@@H](CCCCN)NC(=O)[C@@H](CCCCN)NC(=O)[C@@H](CCCNC(=N)N)NC(=O)CNC(=O)[C@H](N)Cc1ccc(O)cc1)C(=O)N[C@@H](CCC(=O)O)C(=O)N[C@@H](CO)C(=O)N[C@@H](CC(=O)O)C(=O)N[C@H](C(=O)O)C(C)C [D-TAT-L-2B9c IV (7.6mg/kg)] (H-[dY]G[dR][dK][dK][dR][dR][dQ][dR][dR][dR]KLSSIESDV-OH) | 101.80 | 99.45 | 4.2 | 23470 | 3.12 |  |  |  |  |  |
| CC[C@H](C)[C@H](NC(=O)[C@H](CO)NC(=O)[C@H](CO)NC(=O)[C@H](CC(C)C)NC(=O)[C@H](CCCCN)NC(=O)[C@H](CCCNC(=N)N)NC(=O)[C@H](CCCNC(=N)N)NC(=O)[C@H](CCCNC(=N)N)NC(=O)[C@H](CCC(N)=O)NC(=O)[C@H](CCCNC(=N)N)NC(=O)[C@H](CCCNC(=N)N)NC(=O)[C@H](CCCCN)NC(=O)[C@H](CCCCN)NC(=O)[C@H](CCCNC(=N)N)NC(=O)CNC(=O)[C@@H](N)Cc1ccc(O)cc1)C(=O)N[C@@H](CCC(=O)O)C(=O)N[C@@H](CO)C(=O)N[C@@H](CC(=O)O)C(=O)N[C@H](C(=O)O)C(C)C [Nerinetide Alone (N=3)] (H-YGRKKRRQRRRKLSSIESDV-OH) |  |  |  |  |  | 157124.94 ± 13524.57 | 153668.29 ± 14916.92 | 0.00096 ± 0.00012 | 10322.40 ± 683.80 | 8.31 ± 1.32 |
| CC[C@H](C)[C@H](NC(=O)[C@H](CO)NC(=O)[C@H](CO)NC(=O)[C@H](CC(C)C)NC(=O)[C@H](CCCCN)NC(=O)[C@H](CCCNC(=N)N)NC(=O)[C@H](CCCNC(=N)N)NC(=O)[C@H](CCCNC(=N)N)NC(=O)[C@H](CCC(N)=O)NC(=O)[C@H](CCCNC(=N)N)NC(=O)[C@H](CCCNC(=N)N)NC(=O)[C@H](CCCCN)NC(=O)[C@H](CCCCN)NC(=O)[C@H](CCCNC(=N)N)NC(=O)CNC(=O)[C@@H](N)Cc1ccc(O)cc1)C(=O)N[C@@H](CCC(=O)O)C(=O)N[C@@H](CO)C(=O)N[C@@H](CC(=O)O)C(=O)N[C@H](C(=O)O)C(C)C [Nerinetide IV (7.6mg/kg)] (H-YGRKKRRQRRRKLSSIESDV-OH) | 79.17 | 70.99 | 6 | 10400 | 4.59 |  |  |  |  |  |
